The results in this text go back to PubChem BioAssay AID2685 (National Center for Advancing Translational Sciences (NCATS), 2010).

The list shows a part of the results. These are further read-outs of the screen, such as a control signal, another cell line or another target. No call is given for them. The list favours compounds with an active or inconclusive main result. Potencies come from curve fits of mixed quality, noted in brackets.

The nature of the assay: qHTS Assay for Lipid Storage Modulators in Drosophila S3 Cells.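 As to cell number change: cells counted by Cell Tracker Red CMTPX staining in the red channel.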 The following applies: BODIPY lipid droplet fluorescence, 18-24 h; for cell number change: measured here: cell count max response, cells fed with added oleic acid. The essentials: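 Drosophila S3 cells loaded with oleic acid (400 uM, as added) and compounds at several concentrations; lipid droplets imaged by 488-nm laser-scanning cytometry, 500–530 nm intensity and object ratio to cell channel. Percent activity normalized to 20 uM Triacsin C.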
In general terms: qHTS replaces the single test concentration by a dilution series.

[1] abbreviates: measured here: lipid fluorescence (Fed channel) AC50, cells fed with added oleic acid.
Where [2] appears, read: measured here: cell number channel AC50, cells fed with added oleic acid.

By AC50 is commonly meant the midpoint of the concentration-response curve, whichever way the signal moves. A high value points to weaker potency. Turning to `CC(C)c1ccc(NC(=O)Nc2cnccn2)cc1`, the cell number change came out at 31.2%. Under setting [1], the AC50 was 20.6 µM [rising, partial curve].
For the compound `O=C(NCC1CCCO1)c1cn(Cc2ccccc2)nc1-c1ccc(Cl)cc1` (configuration not stated), the cell number change was -1.81%. In addition, the AC50 under setting [1] was 0.00461 µM [falling, full curve, poor fit].
Regarding `CC(=O)Nc1ccc(NC(=O)CS(=O)(=O)c2cn(CC(=O)N3CCCC3)c3ccccc23)cc1`, the cell number change was determined as 33.6%. Under setting [2], the concentration at half-maximal activity (AC50) was 0.146 µM [rising, full curve, poor fit].
Consider `COc1ccccc1CN(Cc1cc2cc(C)ccc2[nH]c1=O)Cc1nnnn1Cc1ccco1`, for which the cell number change was -30.1%. Also, the AC50 under setting [2] was 10.3 µM [falling, partial curve]. Further, the AC50 under setting [1] is 0.0164 µM [rising, full curve, poor fit].
Regarding `CC(=O)c1nnn(-c2c(F)cccc2F)c1C`, the AC50 under setting [2] was 0.651 µM [falling, single point].
On to `O=C(CC(Cc1ccccc1)C(=O)O)Nc1ccccc1` (configuration not stated), for which the cell number change worked out at 38.7%. Also, the AC50 under setting [2] is 29.1 µM [rising, single point].
Regarding `CC1CCN(CC(=O)Nc2cc(C(F)(F)F)ccc2Cl)CC1`, the cell number change is 3.82%. In addition, under setting [1], the AC50 was 4.11 µM [rising, single point].
Take `COc1ccc(C(CC(=O)N2CCN(c3ccccc3)CC2)c2c(OC)cc(OC)c3ccc(=O)oc23)cc1` (configuration not stated): the cell number change came out at 6.38%. For the same compound, the AC50 under setting [1] was 2.06 µM [rising, partial curve].
For the compound `Cc1cc(=O)oc2c3c(cc(OCC(=O)NCC4CCC(C(=O)O)CC4)c12)OC(C)(C)CC3` (configuration not stated), the cell number change was -20.9%. Under setting [1], the half-maximal activity concentration (AC50) is 0.92 µM [falling, full curve, poor fit].
Consider `Cc1ccc(CN2CCN(C(=O)CC(C)C)CC2)cc1`, for which the cell number change is -21.5%.
For `O=C(NC1CC1)C1=C[C@@H](c2ccc3c(c2)OCO3)C[C@@H](OCCCCO)O1`, the cell number change is -14.4%. Also, under setting [1], the AC50 was 23.1 µM [rising, single point].
`CCOC(=O)CN1C2=NCCN2c2ccccc21`: the cell number change is -109%. Also, the AC50 under setting [2] was 25.9 µM [falling, partial curve]. Also, the AC50 under setting [1] was 29.1 µM [falling, partial curve].
In the case of `Cc1ccc(C)c(CN2CCC(CNC(=O)Nc3ccc(C)c(C)c3)CC2)c1`, the cell number change is -6.94%. In addition, under setting [1], the AC50 was 6.51 µM [falling, single point].
On to `CCOC(=O)c1c(NC(=O)/C=C/C(=O)O)sc(C)c1-c1ccc(C(C)(C)C)cc1`, for which the cell number change was -20%. In addition, under setting [1], the AC50 was 1.26 µM [falling, full curve, poor fit].
As to `COc1ccc(CCNc2ncccc2C#N)cc1OC`, the cell number change is 18.1%. The half-maximal activity concentration (AC50) under setting [1] is 0.326 µM [falling, partial curve, poor fit].
In the case of `Cc1c(Cl)cccc1NC(=S)N1CCCCCC1`, the cell number change was -10.9%. In addition, the concentration at half-maximal activity (AC50) under setting [1] is 29.1 µM [falling, single point].
On to `Cc1ccccc1OCC(=O)OCC(=O)NC1CC1`, for which the cell number change is -2.01%. Further, the half-maximal activity concentration (AC50) under setting [1] was 0.00411 µM [falling, full curve, poor fit].
Regarding `COc1cc2c(cc1OC)C1CC(=O)C(CC(C)C)CN1CC2` (configuration not stated), the cell number change was found to be 51.2%. Further, the half-maximal activity concentration (AC50) under setting [2] is 9.2 µM [rising, partial curve]. Further, the half-maximal activity concentration (AC50) under setting [1] is 0.92 µM [rising, full curve].
Consider `O=C(O)c1ncn(Cc2ccccc2)c1C(=O)O`, for which the cell number change amounted to 1.23%. Under setting [1], the AC50 is 2.91 µM [falling, full curve, poor fit].
Consider `Cc1cccc(-n2c(O)c(C=NC3CCS(=O)(=O)C3)c3ccccc3c2=O)c1` (configuration not stated), for which the cell number change is -12.3%. Moreover, under setting [1], the AC50 was 6.51 µM [rising, single point].
For `O=C(O)c1ccc(N2CCS(=O)(=O)CC2)cc1`, the cell number change is -30.2%. Further, the AC50 under setting [2] was 6.51 µM [rising, single point]. Moreover, the half-maximal activity concentration (AC50) under setting [1] was 8.2 µM [falling, single point].
`Cc1ccc(C(C[N+](=O)[O-])c2c(C)[nH]n(-c3ccccc3)c2=O)cc1` (configuration not stated): the cell number change was -21.6%. The concentration at half-maximal activity (AC50) under setting [1] was 16.4 µM [falling, single point].
As for `COC(=O)c1cn(NC(=O)c2cc(OC)c(OC)c(OC)c2)c(=O)c2ccccc12`, the cell number change was 34.6%. In addition, the concentration at half-maximal activity (AC50) under setting [2] is 4.61 µM [rising, partial curve, poor fit].
`COCCOC(=O)C1=C(C)NC(=O)NC1c1ccc(-c2ccc(F)cc2)o1` (configuration not stated): the cell number change was 23.5%. Under setting [2], the AC50 is 1.64 µM [rising, full curve, poor fit]. Moreover, under setting [1], the half-maximal activity concentration (AC50) is 2.59 µM [rising, partial curve].
In the case of `Cc1nn(-c2ccccc2)c2nc(=O)n(-c3ccccc3)cc12`, the cell number change was 9.55%. Under setting [1], the AC50 was 2.31 µM [rising, full curve].
With `O=c1c2ccccc2nc(N2CCN(c3ccccc3)CC2)n1Cc1ccccc1`, the cell number change stood at 42.4%. Further, the concentration at half-maximal activity (AC50) under setting [2] is 0.82 µM [rising, full curve]. Besides, under setting [1], the half-maximal activity concentration (AC50) was 0.411 µM [rising, full curve].
On to `Nc1ccc(S(=O)(=O)NC(=O)c2ccccc2)cc1`, for which the cell number change came to 33.5%. The concentration at half-maximal activity (AC50) under setting [2] was 29.1 µM [rising, single point]. Further, under setting [1], the AC50 is 18.4 µM [falling, single point].
Turning to `CC1(C)CCCN(C(=O)c2ccc3c(c2NCCO)C(=O)c2ccccc2C3=O)C1`, the cell number change was -33.9%. Further, the AC50 under setting [2] was 6.51 µM [falling, full curve, poor fit]. The AC50 under setting [1] was 2.91 µM [falling, full curve].
`COc1cc(SC)ccc1C(=O)Nc1ccc2c(c1)OCCO2`: the cell number change was found to be 38.3%. The AC50 under setting [2] is 2.06 µM [rising, full curve, poor fit]. Besides, the concentration at half-maximal activity (AC50) under setting [1] was 2.91 µM [rising, full curve].
For the compound `COc1cccc(-n2nnnc2SCC(=O)Nc2cccc(NC(C)=O)c2)c1`, the cell number change came out at 5.59%. Besides, under setting [2], the AC50 was 0.231 µM [rising, full curve, poor fit].
As for `c1ccc(-n2ncc3c(NCc4ccccn4)ncnc32)cc1`, the AC50 under setting [2] is 0.731 µM [rising, single point].
With `COc1ccc(CCNC(=O)COC(=O)c2ccc(Br)o2)cc1OC`, the cell number change was -67.5%. Moreover, the concentration at half-maximal activity (AC50) under setting [2] is 8.2 µM [falling, partial curve]. Besides, the AC50 under setting [1] was 16.4 µM [falling, partial curve].
With `O=C1C=C(Nc2ccc(O)cc2)C(=O)c2ccccc21`, the cell number change is -34.5%. In addition, the AC50 under setting [2] was 32.6 µM [falling, single point].
Take `O=C(CCCOc1ccccc1)OCn1nnc2ccccc2c1=O`: the cell number change turned out to be 25.5%. Besides, the concentration at half-maximal activity (AC50) under setting [2] is 2.91 µM [rising, single point].
As to `O=C(O)CSCC(=O)NCc1ccccc1`, the cell number change is -36.2%. Under setting [2], the AC50 was 0.206 µM [falling, full curve]. Also, the AC50 under setting [1] was 2.06 µM [falling, full curve].
In the case of `CC(CN1CCOCC1)OC(=O)c1ccc(Cl)cc1Cl` (configuration not stated), the cell number change amounted to 1.1%.
`CCCC[C@@]1(C2CCCC2)Cc2cc(OCC(=O)O)c(Cl)c(Cl)c2C1=O`: the cell number change was -21.7%. Also, under setting [2], the half-maximal activity concentration (AC50) is 0.411 µM [falling, full curve, poor fit]. Under setting [1], the AC50 is 0.58 µM [falling, partial curve].
With `COc1ccc(NC(C)C(=O)Nc2ccc(C#N)cc2)cc1Cl` (configuration not stated), the cell number change was determined as 70.8%. Further, the AC50 under setting [2] is 11.6 µM [rising, partial curve, poor fit].
Consider `CCOc1ccc(NC(=S)N2CCC(C(O)(c3ccccc3)c3ccccc3)CC2)cc1`, for which the cell number change worked out at 1.76%. Besides, the AC50 under setting [1] is 0.731 µM [rising, full curve, poor fit].
For `O=C(COC(=O)c1ccc(O)cc1)NC(=O)NCc1ccccc1`, the cell number change was 11.3%. For the same compound, the AC50 under setting [2] was 0.00517 µM [rising, full curve, poor fit]. The AC50 under setting [1] is 0.0291 µM [rising, full curve, poor fit].
For `O=C(CSc1nnc(-c2ccc(Cl)cc2)o1)N1CCOCC1`, the cell number change was found to be 3.75%. In addition, the half-maximal activity concentration (AC50) under setting [1] was 18.4 µM [rising, single point].
Take `COc1ccc(OC)c2sc(N(CCCN(C)C)C(=O)CCS(=O)(=O)c3ccccc3)nc12`: the cell number change is -74.4%. Moreover, under setting [2], the AC50 is 8.2 µM [falling, partial curve]. The AC50 under setting [1] was 29.1 µM [falling, single point].
Regarding `O=C(Nc1ccc2c(c1)OCCO2)C1CCN(c2nnnn2-c2ccccc2)CC1`, the cell number change was -9.22%.
Regarding `Cc1ccc(C(=O)Nc2ccccc2C(=O)N2CCCC2)cc1[N+](=O)[O-]`, the cell number change is -42.2%. The AC50 under setting [2] is 29.1 µM [falling, single point].
For `CCn1c(SCC(=O)Nc2nc(C)cs2)nnc1C(NC(=O)c1ccccc1Cl)C(C)C` (configuration not stated), the cell number change is -80.5%. The AC50 under setting [2] is 10.3 µM [falling, partial curve]. The half-maximal activity concentration (AC50) under setting [1] is 8.2 µM [falling, partial curve, poor fit].
Turning to `COc1cccc(C(=O)Nc2ncc3c(n2)CC(c2ccc(OC)cc2OC)CC3=O)c1` (configuration not stated), the cell number change was determined as 53%. Also, the half-maximal activity concentration (AC50) under setting [2] is 29.1 µM [rising, single point]. Moreover, under setting [1], the AC50 was 2.31 µM [rising, single point].
As for `COc1ccc(Nc2nc(Nc3ccc(OC)cc3)nc(SC3=NCCS3)n2)cc1`, the cell number change was -11.9%. The AC50 under setting [1] is 6.51 µM [rising, single point].
In the case of `CC1=C(C(=O)OCCc2ccccc2)C(c2ccsc2)NC(=O)N1C` (configuration not stated), the cell number change is -14.4%. In addition, under setting [1], the AC50 was 29.1 µM [rising, single point].
Take `COc1ccc2[nH]c(O)c(N=O)c2c1`: the cell number change stood at 92%. The half-maximal activity concentration (AC50) under setting [2] was 29.1 µM [rising, partial curve, poor fit]. The AC50 under setting [1] is 0.411 µM [falling, single point].
Regarding `Cc1ccc(CNC(C)c2ccccc2)cc1` (configuration not stated), the cell number change is 30.2%. In addition, under setting [2], the AC50 is 29.1 µM [rising, single point]. Moreover, the AC50 under setting [1] is 0.058 µM [falling, full curve, poor fit].
Consider `COc1ccc(OC)c(NC(=O)Cn2c(-c3ccc(Cl)cc3)noc2=O)c1`, for which the cell number change is -20.5%. For the same compound, under setting [1], the AC50 was 6.51 µM [rising, single point].
Turning to `CC(C(=O)Nc1cccc(S(=O)(=O)N2CCOCC2)c1)N1CCN(C/C=C/c2ccccc2)CC1` (configuration not stated), the AC50 under setting [2] is 0.231 µM [rising, full curve, poor fit].
For `CCOC(=O)C1CCCN(C(=O)c2cc3cc(OC)c(OC)cc3[nH]2)C1` (configuration not stated), the cell number change was -22.7%.
As to `c1ccc2c(NCCCN3CCOCC3)c3ccccc3nc2c1`, the cell number change was -34.4%. For the same compound, the AC50 under setting [2] was 2.91 µM [falling, full curve, poor fit].
For the compound `COc1ccc(-n2ccnc2SCC(=O)NCc2ccc(F)cc2)c(OC)c1`, the cell number change was -13.5%. Moreover, the AC50 under setting [2] is 2.91 µM [falling, single point]. Further, the half-maximal activity concentration (AC50) under setting [1] is 6.51 µM [falling, single point].
